# Test results: US20240261308A1, “TREATMENT OF SKIN CONDITIONS USING HIGH KRAFFT TEMPERATURE ANIONIC SURFACTANTS” (ARCUTIS BIOTHERAPEUTICS, INC., priority 2020, published 2024)
# At least one compound was matched to its structure with a doubt left.
# Experiment: Krafft temperature determination of dilute aqueous surfactant in a water bath (dissolution and frothing)
# Type: physicochemical
# Settings: 0.012% ceteth-10 phosphate, 0.017% dicetyl phosphate, 0.014% sodium cetostearyl sulfate in distilled water
# Procedure: 0.0012 grams of ceteth-10 phosphate (Moravek Lot 671-144-000-A-20190821-JHO) was weighed into a 20 mL glass scintillation vial. 10.0113 grams of distilled water was added to the scintillation vial and the vial was tightly capped and placed in a water bath. […] The surfactant remained as waxy particles sedimented on the bottom of the vial. After equilibration at 53.0° C. for 435 minutes, ceteth-10 phosphate had dissolved and the sample frothed when shaken. The Krafft temperature of a 0.012% ceteth-10 phosphate aqueous solution was determined to be 53.0° C.
# 0.0019 grams of dicetyl phosphate (Sigma dihexadecyl phosphate lot STBH2863) was weighed into a 20 mL glass scintillation vial. 11.2262 grams of distilled water was added to the scintillation vial and the vial was tightly capped and placed in a water bath. […] After equilibration at 58.0° C. for 450 minutes, dicetyl phosphate had dissolved and the sample frothed when shaken. The Krafft temperature of a 0.017% dicetyl phosphate aqueous solution was determined to be 58.0° C.
# 0.0024 grams of sodium cetostearyl sulfate (BASF Lanette E Granules Lot 0021826181) was weighed into a 20 mL glass scintillation vial. 17.0763 grams of distilled water was added to the scintillation vial and the vial was tightly capped and placed in a water bath. […] After equilibrating at 40.0° C. for 805 minutes the sodium cetostearyl sulfate had not dissolved and the sample slightly frothed when vigorously shaken. After equilibration at 42.5° C. for 365 minutes, sodium cetostearyl sulfate had dissolved and the sample frothed when shaken. The Krafft temperature of a 0.014% sodium cetostearyl sulfate aqueous solution was determined to be 41.0° C.
compound,measurement,setting,value
"CCCCCCCCCCCCCCCCOP(=O)(O)OCCCCCCCCCCCCCCCC [Dicetyl phosphate, dicetyl phosphate]",Krafft temperature,,58 °C
same,Krafft temperature,listed as dicethyl phosphate,58 °C
same,Krafft temperature,listed as dicetyl phosphate,58.0 °C
